Hit rate of the full screen: of about 140,000 compounds, about 4,300 (3.1%) were called active. The inconclusive results got no clear call from the source; some entries with a clear call stand among them for comparison.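 How the source made its calls: active means readout at or below -70, meaning at least 70% loss of cells showing the perinucleolar compartment, a nuclear body marking cancer cells; inconclusive means readout between -30 and a set limit; inactive means the rest.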
Test: High Content Assay for Compounds that inhibit the Assembly of the Perinucleolar Compartment;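 further: plate controls were DMSO wells for no effect and camptothecin positive control wells for full effect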
Conditions: PC3M PTB-GFP, PNC prevalence imaging, 16 h; at 10 µM; hits give low values
Summary of the method: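 PC3M cells stably expressing PTB-GFP, 750–1000 cells/well, treated 16 h at 37 °C with compound (23 nl of library stock), in duplicate. After paraformaldehyde fixation and Hoechst stain, imaged at 20x; PNC prevalence scored by image analysis.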

SMILES	activity change (PNC), negative = inhibition
O=C(CSc1c(Cl)cccc1Cl)NC1CCCc2ccccc21 (centres undefined)	inactive: 4.99%
O=c1oc2ccccc2cc1-c1ccc(O)cc1	inactive: 7.21%
Cc1cc(O)ccc1NC(=O)CCN1C(=O)c2ccc([N+](=O)[O-])cc2C1=O	active: -97.9%
CC1(C(=O)NCCCNc2ncc(C(F)(F)F)cc2Cl)C=CCN1C(=O)c1ccccc1 (centres undefined)	inconclusive: -62.4%
CC(=C\C(=O)O)/C(=C/c1ccc(C)o1)C(=O)O	inactive: -2.47%
O=c1[nH]nc(CNc2ccc(O)cc2)c2ccccc12	inactive: 42.5%
CCCCn1c(-c2ccc([N+](=O)[O-])cc2)n[nH]c1=S	inconclusive: -52.3%
CN1C(=O)/C(=C/c2ccc(-c3ccccc3[N+](=O)[O-])o2)SC1=Nc1ccc(Cl)c(C(=O)O)c1	inconclusive: -46.9%
Cc1ccc(O)c(C2=NOC(O)(C(F)(F)C(F)F)C2)c1 (centres undefined)	inconclusive: -49.2%
CC(C)OC(=O)CSc1nc(N)c(C#N)c(-c2ccco2)c1C#N	inconclusive: -30.8%
Clc1ccc(-c2noc(COc3ccccc3)n2)cc1	inconclusive: -58.6%
C=CCn1c(COc2ccc3c(c2)CCCC3)nnc1SCC(=O)Nc1cccc(SC)c1	inconclusive: -46.3%
COC(=O)c1ccccc1NC(=O)Nc1cccs1	inconclusive: -61.7%
O=C(Nc1nc2c(s1)CCCC2)c1cccs1	inactive: -0.711%
COc1cc(-c2nnc(CSc3nnc(Nc4ccc(Oc5ccccc5)cc4)s3)o2)cc(OC)c1OC	inactive: 3.23%
CC(=O)Oc1cc2c(C(=O)NCCCN3CCOCC3)c(C)oc2c2ccccc12	inconclusive: -63.6%
CC(C)(C)NC(=O)CSc1nc2ccccc2n1-c1ccccc1	inactive: -19.9%
Cc1[nH]c(=O)[nH]c(=O)c1S(=O)(=O)N1CCCC(C(=O)N2CCN(c3ccccc3Cl)CC2)C1 (centres undefined)	inactive: -17.3%
O=C(O)CC(C(=O)OC1CCCCC1)N1CCOCC1 (centres undefined)	inconclusive: -56.1%
Cc1cc2c(cc(C(=O)OCC(=O)NCc3cccs3)n2C(C)C)o1	inactive: 7.24%
O=C(c1cccc2cccc(O)c12)N1CCCCC1	inconclusive: -46%
CC(=O)Nc1nc2ccccc2n1CCOc1ccccc1	inactive: -0.164%
Cc1nc(SCC(=O)NCCc2ccccc2)c2oc3ccccc3c2n1	active: -99.8%

An excerpt from above in order of count of non-hydrogen atoms, falling:
SMILES	activity change (PNC), negative = inhibition
C=CCn1c(COc2ccc3c(c2)CCCC3)nnc1SCC(=O)Nc1cccc(SC)c1	inconclusive: -46.3%
CC(=O)Oc1cc2c(C(=O)NCCCN3CCOCC3)c(C)oc2c2ccccc12	inconclusive: -63.6%
CC(C)(C)NC(=O)CSc1nc2ccccc2n1-c1ccccc1	inactive: -19.9%
CC(=O)Nc1nc2ccccc2n1CCOc1ccccc1	inactive: -0.164%
O=C(O)CC(C(=O)OC1CCCCC1)N1CCOCC1 (centres undefined)	inconclusive: -56.1%
O=C(c1cccc2cccc(O)c12)N1CCCCC1	inconclusive: -46%

(list continues)

SMILES	activity change (PNC), negative = inhibition
Cc1ccccc1-c1nc(CS(=O)(=O)CC(=O)NCc2ccccc2)c(C)o1	inconclusive: -56%
O=C(CN1C(=O)COc2ccccc21)NCCN1CCc2ccccc2C1	inconclusive: -64.4%
Cc1cccc(NC(=S)NNC(=O)c2csc3c2CCCC3)c1	inactive: 26.1%
Cc1ccc2nsnc2c1NC(=S)NC(=O)c1ccco1	inconclusive: -32.7%
COc1ccc(CNC(=O)CCSCc2cccc(Cl)c2)c(OC)c1	inactive: -24.4%
CS(=O)(=O)N(CC(=O)N1CCCC1)c1ccc2c(c1)OCCO2	inconclusive: -43.6%
O=Nc1c(O)n(Cc2cccc(Cl)c2)c2ccccc12	inconclusive: -37.4%
O=C(O)c1ccc(COc2ccccc2Cl)cc1	inactive: -1.43%
CC1(C)Cc2c(C#N)c(OCC(=O)c3ccccc3)nc(-c3ccoc3)c2CO1	inactive: -22.1%
CCCNC(=O)COC(=O)c1ccc(S(=O)(=O)N2CCCCCC2)cc1	inactive: 27.6%
CCOc1cc(S(=O)(=O)Nc2ccc(Cl)cn2)ccc1Cl	inconclusive: -46.6%
COc1ccc(-n2c(SCC#N)nnc2-c2ccc(NS(=O)(=O)c3ccc(C)cc3)cc2)cc1	inconclusive: -50.2%
OC(CNCCc1ccc(C(F)(F)F)cc1)COc1ccc2ccccc2c1 (centres undefined)	inconclusive: -30.9%
C=CCc1ccc(OCCCOc2ccc(C)c(C)c2)c(OC)c1	inconclusive: -33.3%
C#CCN1C(=O)C(O)(CC(=O)c2ccc(OC)c(OC)c2)c2ccccc21 (centres undefined)	inconclusive: -33.8%
CCn1c(=N)n(CC(=O)C(C)(C)C)c2ccccc21	inconclusive: -34.6%
COC(=O)c1ccc(C(=O)OC)c(NC(=O)COC(=O)C2CC2C)c1 (centres undefined)	inconclusive: -43.4%
COC(=O)C1=C(C)NC(C)=C(C(=O)OC)C1C(=O)OCC(=O)N1c2ccccc2CC1C (centres undefined)	inactive: 17.6%
Cc1c(N2C(=O)/C(=C/c3ccccc3)SC2=S)c(=O)n(-c2ccccc2)n1C	inactive: 28.1%
CCOc1ccc(OCC)c(-c2c(=O)n(OCc3ccc(Cl)cc3)c3ccccc3[n+]2[O-])c1	inactive: 60.4%
Cc1cc(NC(=O)COc2ccc(N(C)S(=O)(=O)c3ccccc3)cc2)no1	inactive: 2.65%
Cc1ccc(OCCCCN(C)Cc2ccccc2)c(Br)c1	inconclusive: -40.2%
N=c1cc(C2(O)CCCCC2)n2c(nc3ccccc32)s1	inconclusive: -42.5%

SMILES	activity change (PNC), negative = inhibition
CCCCOC(=O)c1ccc(O)cc1	inactive: 14.6%
COc1cc([N+](=O)[O-])ccc1NC(=O)CCN1C(=O)C2C3CCC(C3)C2C1=O (centres undefined)	inconclusive: -68.6%
COc1ccc(-c2noc(CCCC(=O)NCCc3ccccc3)n2)cc1OC	inconclusive: -31.5%
CC(C)[C@H](NC(=O)[C@H](CCCN=C(N)N)NC(=O)NC(Cc1ccccc1)C(=O)O)C(=O)NC(C=O)CCCN=C(N)N (some centres undefined)	inconclusive: -34.2%
CCCn1c(N)c(C(=O)CN2CCN(S(=O)(=O)c3cccs3)CC2)c(=O)[nH]c1=O	inconclusive: -42.5%
O=S(=O)(c1ccc(-c2csc(Nc3ccc(Br)cc3)n2)cc1)N1CCCC1	inconclusive: -64%
O=c1[nH]c(C2CCCN(S(=O)(=O)c3ccccc3)C2)nc2c1nnn2Cc1ccccc1F (centres undefined)	inactive: -23.5%
COc1cc2c(cc1NC(=O)Nc1ccc(F)cc1)oc1ccccc12	inactive: 0.577%
CN(CC(=O)NCc1ccc(Cl)cc1)S(=O)(=O)c1cccc2nsnc12	inconclusive: -39%
CCOc1ccc(NC(=O)CCn2cccc2)cc1	inconclusive: -44.6%
CN(C)c1ccc(NC(=O)CN2CCN(CC(=O)Nc3ccc(F)cc3)CC2)cc1	inconclusive: -47.1%
Cn1c2c(c(=O)n(C)c1=O)CN(Cc1ccc(F)cc1)CN2	inconclusive: -48.8%
COc1ccc(N2CCn3c2nc2c3c(=O)n(CCCc3ccccc3)c(=O)n2C)c(OC)c1	inactive: 18.4%
CCOC(=O)c1c(C)[nH]c(C(=O)CSc2nnc(-c3ccncc3)n2CC)c1C	inconclusive: -59.7%
CCCOc1c(Br)cc(C2C3=C(CCCC3=O)N(C)C3=C2C(=O)CCC3)cc1OC	active: -98.1%
Cc1cc(N2CCCCC2)n2nc(C)c(-c3ccccc3)c2n1	active: -81.8%
O=C1ON=C(c2ccccc2)/C1=C/c1ccc(-c2ccccc2[N+](=O)[O-])o1	inactive: -10.1%
N#CC1=C(N)N2C(=C(C#N)C13CCCCC3)SC1CCCCC12O (centres undefined)	inconclusive: -53.5%
CN(C1CCS(=O)(=O)C1)S(=O)C12CC3CC(CC(C3)C1)C2 (centres undefined)	active: -100%
c1ccn(-c2ncnc3sc4c(c23)CCCC4)c1	inactive: 13.1%
CC1=C(C(=O)OCCNC(=O)c2cccnc2)C(c2cccc([N+](=O)[O-])c2)C(C(=O)OCCN(C)C)=C(C)N1 (centres undefined)	inconclusive: -39.3%
CC1CCCCN1C(=O)CSc1nnc(-c2ccco2)n1CC1CCCO1 (centres undefined)	inactive: 9.04%
O=C(Nc1ccccc1N1CCCCC1)c1ccc(-c2ccc(Cl)cc2)o1	active: -81.7%

SMILES	activity change (PNC), negative = inhibition
O=c1ccn(Cc2ccccc2)c(=O)n1Cc1ccccc1	inconclusive: -56.2%
CCc1ccc(C(=O)NC(CCSC)C(=O)O)cc1 (centres undefined)	inconclusive: -30.5%
COc1ccc(/C=C/C(=O)N(CC(C)C)CC(C)C)cc1Br	inactive: -7.25%
Cc1ccc(N2C(=O)/C(=C\c3ccco3)SC2=S)cc1	inactive: 30.7%
CCC(C)NC(=O)CSC1=Nc2ccccc2C2=NC(CC(=O)NCc3ccccc3)C(=O)N12 (centres undefined)	active: -100%
COCCOC(=O)c1c(C)nc(SCC(=O)Nc2ccc(OC)cc2)c(C#N)c1-c1ccco1	active: -111%
CN1CCN(c2ccc(S(=O)(=O)N3CCCCC3)cc2NC(=O)c2ccc3ccccc3c2)CC1	inactive: 29.2%
O=[n+]1cc(-c2ccc(F)cc2)n([O-])c2c1CCC2	inconclusive: -58.5%
COC(=O)c1c(-c2ccc(OC)c(OC)c2)csc1N	inactive: -14.7%
Cc1ccc2[nH]c(-c3ccccc3)cc(=O)c2c1	active: -111%
COc1ccccc1/C=C/C(=O)OCCN1CCOCC1	active: -87.2%
Cc1c(NC(=O)c2cc3nc(-c4ccccc4)cc(C)n3n2)c(=O)n(-c2ccccc2)n1C	inconclusive: -60.5%
Cc1c(NC(=O)c2cc(-c3cccs3)on2)c(=O)n(-c2ccccc2)n1C	inconclusive: -30.7%
Cc1ccc2occ(C(c3nnnn3Cc3ccccc3)N3CCOCC3)c(=O)c2c1 (centres undefined)	inactive: 11.4%
Oc1ccc(Br)cc1CN1CCCCCCC1	inactive: -2.59%
COc1ccc(CCNC(=O)c2c(O)c3cccc4c3n(c2=O)CC4)cc1OC	inconclusive: -69.7%
C/C(NCc1ccccc1)=C(\C#N)C(=O)NCc1ccccc1	inconclusive: -36.6%
O=C(NCCc1ccccc1)C1CCCN(S(=O)(=O)c2cnc[nH]2)C1 (centres undefined)	inconclusive: -66.1%
O=C1CN(C(=O)CSc2nc(-c3ccccc3)cs2)c2ccccc2N1	active: -90.6%
CCOC(=O)c1c(-c2ccc(C)cc2)csc1NC(=O)c1cccc(N2C(=O)CCC2=O)c1	inconclusive: -47.7%
